Results are given in words; binding and its absence hold for the method and conditions named. In cells and extracts the contact can be indirect. Some results given as binding are weak or reduced against the parent protein; the word gives no strength.

Sequences of proteins named here, by UniProt entry; tags and fusion partners are left off. A line that says so, or that is headed by a name, gives the form on record, which may keep a tag or linker. Residues count along the entry.
myc-tagged EMCV nonstructural protein 2C (P12296, residues 1196-1520): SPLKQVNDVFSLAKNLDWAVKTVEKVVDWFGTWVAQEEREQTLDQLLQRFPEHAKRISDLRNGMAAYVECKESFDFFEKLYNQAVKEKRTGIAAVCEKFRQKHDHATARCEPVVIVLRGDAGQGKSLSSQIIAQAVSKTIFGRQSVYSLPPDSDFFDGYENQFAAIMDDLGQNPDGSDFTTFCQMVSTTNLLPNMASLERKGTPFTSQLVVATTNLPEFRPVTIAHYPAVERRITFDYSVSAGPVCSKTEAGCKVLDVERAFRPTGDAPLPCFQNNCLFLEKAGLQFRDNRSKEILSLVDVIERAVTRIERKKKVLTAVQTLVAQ
myc-tagged EMCV nonstructural protein 3A (P12296, residues 1521-1608): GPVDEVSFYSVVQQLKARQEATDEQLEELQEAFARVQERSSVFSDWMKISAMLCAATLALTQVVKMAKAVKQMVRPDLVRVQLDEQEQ
myc-tagged EMCV nonstructural protein 3C (P12296, residues 1629-1833): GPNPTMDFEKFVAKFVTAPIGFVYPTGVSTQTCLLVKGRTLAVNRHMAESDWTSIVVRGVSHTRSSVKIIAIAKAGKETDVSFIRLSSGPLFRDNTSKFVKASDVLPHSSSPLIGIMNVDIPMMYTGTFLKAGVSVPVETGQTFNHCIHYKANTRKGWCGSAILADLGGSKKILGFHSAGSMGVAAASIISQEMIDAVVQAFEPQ

Experiment [1] deals with myc-tagged EMCV nonstructural protein 3A (EMCV, strain mengovirus) (UniProt P12296). The experiment can be described thus: co-IP; myc-tagged 3A co-expressed with HA-PI4KA in Huh7-Lunet/T7 cells; IP with mouse monoclonal or rabbit polyclonal anti-myc antibody and protein A-sepharose; western blot against the myc and HA tags. A general note: A western blot detects proteins with antibodies after separation by electrophoresis.

In experiment [2] the target is myc-tagged EMCV nonstructural protein 2C (EMCV, strain mengovirus) (UniProt P12296). The experiment can be described thus: co-IP; myc-tagged viral proteins co-expressed with HA-PI4KA in Huh7-Lunet/T7 cells, [35S] methionine/cysteine labelling, lysis in 50 mM Tris-Cl pH 7.5, 150 mM NaCl, 1% Nonidet P-40; IP with anti-c-myc rabbit polyclonal antibody and protein G-sepharose at 4°C; SDS-PAGE and autoradiography.

Experiment [3] concerns the target myc-tagged EMCV nonstructural protein 3A (EMCV, strain mengovirus) (UniProt P12296). The description is as above.
Experiment [4] addresses myc-tagged EMCV nonstructural protein 3C (EMCV, strain mengovirus) (UniProt P12296). The description is as above.

Consider “HA-PI4KA (phosphatidylinositol 4-kinase III alpha) (from UniProt P42356 1-2102) (enzyme)”, for which the binding entry in experiment [1] is recorded as “binds”; in experiment [2] it was “no binding”; in experiment [3], “binds”; in experiment [4], “no binding”.

For the origin of these results see article PMC4583462.
